Source: patent US20110097328A1 (MIT, published 2011)
Results are given in words; binding and its absence hold for the method and conditions named. In cells and extracts the contact can be indirect. Some binding calls cover weakened binding; strength is not graded here.

Sequences of proteins named here, by UniProt entry; tags and fusion partners are left off.
UniProt P26196: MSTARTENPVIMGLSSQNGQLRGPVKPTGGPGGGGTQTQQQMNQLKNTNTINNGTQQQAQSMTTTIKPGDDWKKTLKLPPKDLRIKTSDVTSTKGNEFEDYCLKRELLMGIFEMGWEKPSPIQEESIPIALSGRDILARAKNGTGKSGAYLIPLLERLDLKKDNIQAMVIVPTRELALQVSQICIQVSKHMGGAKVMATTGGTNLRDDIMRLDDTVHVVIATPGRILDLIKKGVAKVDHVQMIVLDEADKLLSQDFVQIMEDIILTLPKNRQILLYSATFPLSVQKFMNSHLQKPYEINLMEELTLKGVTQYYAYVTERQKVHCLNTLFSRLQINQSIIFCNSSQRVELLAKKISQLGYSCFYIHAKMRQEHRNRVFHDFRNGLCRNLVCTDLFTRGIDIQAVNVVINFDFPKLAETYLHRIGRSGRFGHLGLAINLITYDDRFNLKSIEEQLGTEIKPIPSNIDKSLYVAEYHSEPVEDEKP
UniProt P11940: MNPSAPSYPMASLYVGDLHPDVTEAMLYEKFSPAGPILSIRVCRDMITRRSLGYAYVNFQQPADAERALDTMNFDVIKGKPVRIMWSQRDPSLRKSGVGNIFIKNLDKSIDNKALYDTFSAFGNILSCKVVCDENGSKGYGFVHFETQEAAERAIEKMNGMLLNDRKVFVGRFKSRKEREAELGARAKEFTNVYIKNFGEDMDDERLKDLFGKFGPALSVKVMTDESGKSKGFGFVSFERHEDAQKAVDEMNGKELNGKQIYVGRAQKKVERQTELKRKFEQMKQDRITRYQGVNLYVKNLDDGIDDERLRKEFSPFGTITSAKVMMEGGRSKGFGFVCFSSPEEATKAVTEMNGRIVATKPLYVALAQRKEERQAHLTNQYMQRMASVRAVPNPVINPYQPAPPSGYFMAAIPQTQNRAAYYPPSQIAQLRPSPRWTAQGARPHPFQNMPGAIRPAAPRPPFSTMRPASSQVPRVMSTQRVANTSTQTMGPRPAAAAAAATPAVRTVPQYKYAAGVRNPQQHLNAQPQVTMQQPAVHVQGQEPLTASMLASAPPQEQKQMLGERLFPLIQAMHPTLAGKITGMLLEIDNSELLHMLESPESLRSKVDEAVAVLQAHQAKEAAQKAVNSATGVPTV
UniProt Q9H0J9: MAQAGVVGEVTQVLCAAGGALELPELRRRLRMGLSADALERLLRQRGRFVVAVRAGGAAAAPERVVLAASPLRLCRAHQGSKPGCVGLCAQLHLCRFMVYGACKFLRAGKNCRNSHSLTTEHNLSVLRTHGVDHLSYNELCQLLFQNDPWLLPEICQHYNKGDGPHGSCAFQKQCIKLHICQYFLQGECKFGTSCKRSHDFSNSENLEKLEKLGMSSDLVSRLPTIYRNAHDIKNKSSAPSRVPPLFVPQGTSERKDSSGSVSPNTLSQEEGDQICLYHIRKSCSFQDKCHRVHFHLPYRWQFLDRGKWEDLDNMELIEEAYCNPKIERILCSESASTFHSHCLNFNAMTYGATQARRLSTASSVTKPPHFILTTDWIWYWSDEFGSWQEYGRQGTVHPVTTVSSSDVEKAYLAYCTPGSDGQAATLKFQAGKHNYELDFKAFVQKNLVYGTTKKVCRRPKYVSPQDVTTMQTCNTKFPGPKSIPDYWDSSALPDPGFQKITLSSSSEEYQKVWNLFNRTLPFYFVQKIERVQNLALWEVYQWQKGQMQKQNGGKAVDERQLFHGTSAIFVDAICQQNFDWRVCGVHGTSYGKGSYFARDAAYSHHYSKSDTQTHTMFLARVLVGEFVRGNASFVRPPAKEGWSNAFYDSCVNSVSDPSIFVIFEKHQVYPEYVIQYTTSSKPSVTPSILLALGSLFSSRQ

Legend:
[1] = target: DDX6 (human (HeLa S3 cells)) (UniProt P26196); test: co-immunoprecipitation: anti-GFP IP from lysate of transfected HeLa S3 cells (0 or 20 nM pateamine A, 30 min), immunoblot with anti-DDX6
[2] = target: PABP (human (HeLa S3 cells)) (UniProt P11940); test: co-immunoprecipitation: anti-GFP IP from lysate of transfected HeLa S3 cells (0 or 20 nM pateamine A, 30 min), immunoblot with anti-PABP
EIF2α = test: co-immunoprecipitation: anti-GFP IP from lysate of transfected HeLa S3 cells (0 or 20 nM pateamine A, 30 min), immunoblot with anti-eIF2α
EIF3η = test: co-immunoprecipitation: anti-GFP IP from lysate of transfected HeLa S3 cells (0 or 20 nM pateamine A, 30 min), immunoblot with anti-eIF3η

Measured: binding

PARP12-GFP fusion protein (from UniProt Q9H0J9 1-701)
binds: all assays above
